Values from PubChem BioAssay AID504744 (Drosophila RNAi Screening Center, 2011).
The deposit covers about 23,000 reagents; this is an unselected part of those with a known target gene and a result. Over the whole deposit, 98 (0.43%) were called active. 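Only hit calls are given; the phospho-dAkt signals, z-scores and hit direction were not deposited.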 Reagents against one gene are numbered here. A plus sign joins genes that one reagent is predicted to hit.

- Screen: 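Identify dsRNAs that increase or decrease phospho-dAkt after insulin treatment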 (primary screen)
- Cells: Drosophila Kc167 cells
- Knock-down reagent: long dsRNA against Drosophila genes, 250 ng dsRNA per well of a 384-well plate
- Duration: 3 days of knock-down, then overnight serum-free starvation before stimulation
- Conditions: bovine insulin at 387 nM for 10 minutes after 12 h without serum
- Measured: 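In-cell antibody fluorescence for phospho-dAkt in each well over DNA-dye signal, with log2 residuals expressed as z-scores adjusted for cell count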
- Hit rule: 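Under insulin, a gene counts as a hit if the average z-score of two replicates lies above 2.5 or below -2.5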

no.	gene	dsRNA no.	activity call
1	tra2	1	inactive
2	Mtp	1	inactive
3	Gbeta76C	1	inactive
4	Mrp5	1	inactive
5	Mrp5	2	inactive
6	CG32040	1	inactive
7	CG32040	2	inactive
8	Edem1	1	inactive
9	CG10154	1	inactive
10	NitFhit	1	inactive
11	Taf4	1	inactive
12	CG14744	1	inactive
13	orb2	1	inactive
14	orb2	2	inactive
15	orb2	3	inactive
16	CG4537	1	inactive
17	wcd	1	inactive
18	CG9119	1	inactive
19	skd	1	inactive
20	CG3699	1	inactive
21	CG3699	2	inactive
22	Rnp4F	1	inactive
23	CG8701	1	inactive
24	prc	1	inactive
25	CG33689	1	inactive
26	Hem	1	inactive
27	spab	1	inactive
28	CG11562	1	inactive
29	ATPsyngamma	1	inactive
30	Tg	1	inactive
31	sav	1	inactive
32	sav	2	inactive
33	CG31460	1	inactive
34	CG32182	1	inactive
35	Ptp69D	1	inactive
36	Lapsyn	1	inactive
37	NT5E-2	1	inactive
38	Adk1	1	inactive
39	CG11807	1	inactive
40	Ugt37C1	1	inactive
41	eIF2beta	1	inactive
42	Sry-beta	1	inactive
43	CG18265	1	inactive
44	CSN4	1	inactive
45	cerv	1	inactive
46	RpL3	1	inactive
47	Or7a	1	inactive
48	santa-maria	1	inactive
49	santa-maria	2	inactive
50	CG12974	1	inactive
51	CalpB	1	inactive
52	CG15880	1	inactive
53	CG13924	1	inactive
54	mRRF2	1	inactive
55	CG13877 + pyx	1	inactive
56	CG17287	1	inactive
57	Rpn12	1	inactive
58	Cyp6u1	1	inactive
59	CG8028	1	inactive
60	CG7214	1	inactive
61	CG7214	2	inactive
62	Ptp4E	1	inactive
63	CG9795	1	inactive
64	Acat1	1	inactive
65	mEFTs	1	inactive
66	Odc2	1	inactive
67	Lectin-galC1	1	inactive
68	PGRP-SD	1	inactive
69	CG3213	1	inactive
70	Rap2l	1	inactive
71	Nthl1	1	inactive
72	Chd3	1	inactive
73	Hydr1	1	inactive
74	faf	1	inactive
75	CG14450	1	inactive
76	AP-2mu	1	inactive
77	CG34435	1	inactive
78	CG5302 (retired record)	1	inactive
79	CG5302 (retired record)	2	inactive
80	CG5302 (retired record)	3	inactive
81	CG12784	1	inactive
82	CG9877	1	inactive
83	Upf3	1	inactive
84	CG18266	1	inactive
85	CG12848	1	inactive
86	dmrt11E	1	inactive
87	CG9068	1	inactive
88	Ugt36A1	1	inactive
89	Eo	1	inactive
90	CG32284	1	inactive
91	pont	1	inactive
92	CR13656	1	inactive
93	CR13656	2	inactive
94	bma	1	inactive
95	bma	2	inactive
96	CtBP	1	inactive
97	CG31468	1	inactive
98	CG33462	1	inactive
99	CG4577	1	inactive
100	CG10307	1	inactive
101	tadr	1	inactive
102	L2HGDH	1	inactive
103	CG15120	1	inactive
104	Cyp12a4	1	inactive
105	Cpr35B	1	inactive
106	Cpr35B	2	inactive
107	CG31313	1	inactive
108	CG1998	1	inactive
109	CG3552	1	inactive
110	CHKov1	1	inactive
111	CHKov1	2	inactive
112	CHKov1	3	inactive
113	CHKov1	4	inactive
114	CG40298	1	inactive
115	CG5693	1	inactive
116	CG1545	1	inactive
117	blot	1	inactive
118	blot	2	active
119	ND-B12	1	inactive
120	pim	1	inactive
121	Ctr9	1	inactive
122	CG31013	1	inactive
123	CG18190	1	inactive
124	Su(var)205	1	inactive
125	CG17249	1	inactive
126	Ahcy	1	inactive
127	gl	1	inactive
128	Obp56i	1	inactive
129	CG34005	1	inactive
130	CG12213	1	inactive
131	CG12213	2	inactive
132	Hmr	1	inactive
133	Peritrophin-15b	1	inactive
134	Tps1	1	inactive
135	Rab9Fb	1	inactive
136	dnc	1	inactive
137	dnc	2	inactive
138	dnc	3	inactive
139	dnc	4	inactive
140	dnc	5	inactive
141	CG7768	1	inactive
142	CG33259	1	inactive
143	CG3419 (retired record)	1	inactive
144	CG3419 (retired record)	2	inactive
145	Hk	1	inactive
146	Hk	2	inactive
147	Ktl	1	active
148	CG13404	1	inactive
149	Syx8	1	inactive
150	Syx8	2	inactive
151	eIF2Bdelta	1	inactive
152	CG10185	1	inactive
153	CdGAPr	1	inactive
154	CG14221	1	inactive
155	puc	1	inactive
156	Yp2	1	inactive
157	Orai	1	inactive
158	Orai	2	inactive

Records listed above marked active:
gene	dsRNA no.	activity call
blot	2	active
Ktl	1	active
